Reference: the supplement of paper PMC3682954
Structures can show the parent of a compound that is named as a salt. ± gives the standard deviation of the averaged measurements. The list shows a part of the results. Many values rest on one well or one pass, so single values are uncertain.

Tested on: RAW 264.7
Test: cell viability (MTT) relative to vehicle control; higher = more viable cells
Conditions: stimulus: HMGB1 5 ug/ml, 18 h
[1] = compound concentration: 1 ug/ml

Compound | cell viability (compound concentration: 3 uM) [%] | cell viability [1] [%]
NC(=O)COc1c(F)cc(SCCNS(=O)(=O)c2ccccc2)cc1F | 103 | –
CCCN1CCC[C@H](c2cccc(O)c2)C1 [R(+)-3PPP hydrochloride] | 104 | –
CCN(C)C(=O)Oc1cccc([C@H](C)N(C)C)c1 [Rivastigmine] | 112 ± 6.7 | –
CC[C@@]1([C@@H]2O[C@@H]([C@H]3O[C@@](O)(CO)[C@H](C)C[C@@H]3C)C[C@@H]2C)CC[C@H]([C@]2(C)CC[C@]3(C[C@H](O)[C@@H](C)[C@@H]([C@@H](C)[C@@H](OC)[C@H](C)C(=O)O)O3)O2)O1 [Monensin sodium salt] | 87.5 | –
C[C@@H]1O[C@@H](O[C@H]2C[C@@H](O)[C@]3(CO)[C@H]4[C@H](O)C[C@]5(C)[C@@H](C6=CC(=O)OC6)CC[C@]5(O)[C@@H]4CC[C@]3(O)C2)[C@H](O)[C@H](O)[C@H]1O [Ouabain] | 105 ± 1.1 | –
C[C@@H]1O[C@@H](O[C@H]2C[C@@H](O)[C@]3(CO)[C@H]4[C@H](O)C[C@]5(C)[C@@H](C6=CC(=O)OC6)CC[C@]5(O)[C@@H]4CC[C@]3(O)C2)[C@H](O)[C@H](O)[C@H]1O [(-)-Ouabain hydrate] | – | 82.4
C[C@@H]1O[C@@H](O[C@H]2C[C@@H](O)[C@]3(CO)[C@H]4[C@H](O)C[C@]5(C)[C@@H](C6=CC(=O)OC6)CC[C@]5(O)[C@@H]4CC[C@]3(O)C2)[C@H](O)[C@H](O)[C@H]1O | 99.8 ± 3.1 | –
CN1[C@@H]2CC[C@H]1C[C@@H](OC1c3ccccc3CCc3ccccc31)C2 [Deptropine citrate] | 83.9 | –
COc1ccc2c3c([nH]c2c1)C(C)=NCC3 [Harmaline hydrochloride dihydrate] | 111 | 96.8
C[C@@H](N)Cc1cnc[nH]1 [Histamine, R(-)-alpha-methyl-, dihydrochloride] | 106 | –
Clc1cc(I)cc(Cl)c1NC1=NCCN1 [p-Iodoclonidine hydrochloride] | 97.7 | –
[N-]=[N+]=CC(=O)OC[C@H](N)C(=O)O | 88.3 | –
C[N+]1([O-])[C@@H]2CC[C@H]1C[C@@H](OC(=O)C(CO)c1ccccc1)C2 (stereo partly drawn) | 109 | –
NCC(O)c1ccc(O)cc1 (racemic) [(±)-Octopamine hydrochloride] | 106 | –
NCC(O)c1ccc(O)cc1 (racemic) [(+,-)-Octopamine hydrochloride] | 92.3 | –
C[C@H]1O[C@@H](C[N+](C)(C)C)CS1 | 105 | –
CCCN1CCc2cccc3c2[C@H]1Cc1ccc(O)c(O)c1-3 [R(-)-Propylnorapomorphine hydrochloride] | 97.7 | –
Cc1nccc2c1[nH]c1ccccc12 [Harman] | – | 96.6
Cc1nccc2c1[nH]c1ccccc12 [Harmane hydrochloride] | 113 | –
c1ccc2c(c1)[I+]c1ccccc1-2 [Diphenyleneiodonium chloride] | 81.2 | –
CC(N)Cc1cccc(C(F)(F)F)c1 (single isomer, unassigned; (+)) [(+)-Norfenfluramine hydrochloride] | 110 | –
O=[N+]([O-])c1cc([As](=O)(O)O)ccc1O [Roxarsone] | 118 | –
O=[N+]([O-])c1cc([As](=O)(O)O)ccc1O | 100 | –
CNc1ccc2oc(C[C@H]3O[C@@]4(CC[C@H]3C)O[C@H]([C@H](C)C(=O)c3ccc[nH]3)[C@H](C)C[C@H]4C)nc2c1C(=O)O [Calcimycin] | 1.41 | –
COc1ccc2c(c[n+](C)c3c4cc5c(cc4ccc23)OCO5)c1OC [Chelerythrine chloride] | 15.4 | –
CCN1C[C@]2(COC)[C@H](O)C[C@H](OC)[C@@]34[C@@H]5C[C@@]6(O)[C@H](OC(=O)c7ccccc7)[C@@H]5[C@@](OC(C)=O)([C@@H]([C@H](OC)[C@H]23)[C@@H]14)[C@@H](O)[C@@H]6OC | 103 | –
CCN1C[C@]2(COC)[C@H](O)C[C@H](OC)[C@@]34[C@@H]5C[C@@]6(O)[C@H](OC(=O)c7ccccc7)[C@@H]5[C@@](OC(C)=O)([C@@H]([C@H](OC)[C@H]23)[C@@H]14)[C@@H](O)[C@@H]6OC [Aconitine] | 101 | –

A second format for some results above:

| Compound | cell viability (compound concentration: 3 uM) [%] | cell viability [1] [%] |
| --- | --- | --- |
| CCCN1CCC[C@H](c2cccc(O)c2)C1 [R(+)-3PPP hydrochloride] | 104 | – |
| C[C@@H]1O[C@@H](O[C@H]2C[C@@H](O)[C@]3(CO)[C@H]4[C@H](O)C[C@]5(C)[C@@H](C6=CC(=O)OC6)CC[C@]5(O)[C@@H]4CC[C@]3(O)C2)[C@H](O)[C@H](O)[C@H]1O [(-)-Ouabain hydrate] | – | 82.4 |
